Source: paper PMC11491298
Results are given in words; binding and its absence hold for the method and conditions named. Binding seen in cells or lysates may run through a third protein. Some results given as binding are weak or reduced against the parent protein; the word gives no strength.

The chains behind the UniProt entries cited, without tags or fusion partners.
UniProt P52480: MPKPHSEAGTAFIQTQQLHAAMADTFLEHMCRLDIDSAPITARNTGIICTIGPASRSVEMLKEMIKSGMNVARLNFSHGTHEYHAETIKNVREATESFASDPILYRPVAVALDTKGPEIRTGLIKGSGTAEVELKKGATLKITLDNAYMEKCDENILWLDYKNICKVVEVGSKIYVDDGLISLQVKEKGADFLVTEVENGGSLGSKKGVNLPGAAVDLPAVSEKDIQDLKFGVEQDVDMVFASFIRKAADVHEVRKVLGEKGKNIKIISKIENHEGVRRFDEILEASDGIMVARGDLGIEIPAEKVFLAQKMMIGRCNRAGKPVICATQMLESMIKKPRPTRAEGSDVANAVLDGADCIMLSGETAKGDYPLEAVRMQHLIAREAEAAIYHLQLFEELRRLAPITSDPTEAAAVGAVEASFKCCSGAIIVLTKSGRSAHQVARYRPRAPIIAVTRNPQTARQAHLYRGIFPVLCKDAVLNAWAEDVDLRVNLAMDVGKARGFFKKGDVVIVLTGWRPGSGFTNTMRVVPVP

Tests used:
[1] = biological target: pyruvate kinase M2 (PKM2) (mouse (endogenous in primary hippocampal neurons and hippocampal tissue)) (UniProt P52480); experiment: co-IP; hippocampal tissue of each group of 5xFAD mice (M-exo-sh-NC, M-exo-sh-PKM, oe-NC or oe-DLAT treatments); further conditions not told for tissue
[2] = biological target: pyruvate kinase M2 (PKM2) (mouse (endogenous in primary hippocampal neurons and hippocampal tissue)) (UniProt P52480); experiment: co-IP; lysate of mouse hippocampal neurons (200 ug protein) in IP lysis buffer with protease and phosphatase inhibitors; incubated overnight at 4°C with anti-PKM2, anti-DLAT or control IgG; captured on Protein A/G PLUS-Agarose; western blot for PKM2 and DLAT

- binding [1]: binds
- binding [2]: binds
B1: dihydrolipoamide S-acetyltransferase (DLAT) (protein, UniProt Q8BMF4 86-642)
chain: SLPPHQKVPLPSLSPTMQAGTIARWEKKEGEKISEGDLIAEVETDKATVGFESLEECYMAKILVPEGTRDVPVGSIICITVEKPQDIEAFKNYTLDLAAAAAPQAAPAAAPAPAAAPAAPSASAPGSSYPTHMQIVLPALSPTMTMGTVQRWEKKVGEKLSEGDLLAEIETDKATIGFEVQEEGYLAKILVPEGTRDVPLGAPLCIIVEKQEDIAAFADYRPTEVTSLKPQAAPPAPPPVAAVPPTPQPVAPTPSAAPAGPKGRVFVSPLAKKLAAEKGIDLTQVKGTGPEGRIIKKDIDSFVPSKAAPAAAAAMAPPGPRVAPAPAGVFTDIPISNIRRVIAQRLMQSKQTIPHYYLSVDVNMGEVLLVRKELNKMLEGKGKISVNDFIIKASALACLKVPEANSSWMDTVIRQNHVVDVSVAVSTPAGLITPIVFNAHIKGLETIASDVVSLASKAREGKLQPHEFQGGTFTISNLGMFGIKNFSAIINPPQACILAIGASEDKLIPADNEKGFDVASVMSVTLSCDHRVVDGAVGAQWLAEFKKYLEKPITMLL
